Results reported in PMC5605198, “MELK is not necessary for the proliferation of basal-like breast cancer cells” (eLife, 2017).

How the values were obtained:
[1] = test system: kinases (KINOMEscan panel); experiment: KINOMEscan kinase panel profiling, S(35) score; type: binding
141 kinases = experiment: ICKP panel radiometric kinase profiling (summary); type: biochemical; conditions: 1 μM

Compound	S(35) score ([1]; 1 μM, 456 kinases)	% of the kinases inhibited over 90% (141 kinases) [%]	S(35) score ([1]; 10 μM, 353 kinases)
CN(C)C[C@H]1CC[C@H](N2C(=O)NCc3cnc4ccc(-c5cc(Cl)c(O)c(Cl)c5)cc4c32)CC1 [HTH-01-091, 9-(3,5-dichloro-4-hydroxyphenyl)-1-(trans-4-((dimethylamino)methyl)cyclohexyl)-3,4-dihydropyrimido[5,4 c]quinolin-2(1H)-one]	0.16	4	
O=c1ccc2cnc3ccc(-c4ccc(O)cc4)cc3c2n1-c1ccc(N2CCNCC2)c(C(F)(F)F)c1 [JW-7-25-1]			0.54
CC(=O)c1cnc2ccc(-c3cc(Cl)c(O)c(Cl)c3)nc2c1N[C@H]1CC[C@H](CN(C)C)CC1 [OTSSP167]		67	
